Data as given in PubChem BioAssay AID1259424 (University of Nebraska Medical Center, 2018).

- Test: 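Seek colon cancer survival genes behaving like KSR1, using a six-gene signature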 (primary screen)
- Cell system: human HCT116 colon cancer cells
- Reagents: siRNA pool against human genes, 50 nM
- Measurement: 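Log2 levels of six mRNAs (branched-DNA multiplex), adjusted by two reference genes and the non-targeting median, then scored against the average KSR1 knockdown pattern as Pearson r and euclidean distance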
- Scale: mean correlation with KSR1 profile and KSR1 correlation: higher = expression change more like KSR1 knockdown; mean distance from KSR1 profile: higher = expression change less like KSR1 knockdown
The whole screen tested about 14,000 reagents; below is an unselected part. 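Higher correlation or smaller distance means closer resemblance to KSR1 loss; control wells, including KSR1 knockdowns, recur on many plates.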 Further read-outs or replicates are left out here. No sequences are given here. Not stated in the record: the time to read-out.

| target gene | mean correlation with KSR1 profile | mean distance from KSR1 profile | KSR1 correlation, replicate 1 | KSR1 correlation, replicate 2 |
| --- | --- | --- | --- | --- |
| GPATCH1 (GeneID 55094) | 0.0241 | 3.66 | 0.127 | -0.127 |
| CCDC77 (GeneID 84318) | 0.522 | 1.36 | 0.324 | 0.589 |
| USP7 (GeneID 7874) | -0.227 | 2.77 | -0.141 | -0.275 |
| N4BP2 (GeneID 55728) | 0.561 | 0.873 | 0.378 | 0.46 |
| CUEDC2 (GeneID 79004) | -0.28 | 2.29 | -0.496 | -0.135 |
| MAGED1 (GeneID 9500) | -0.416 | 3.13 | -0.525 | -0.571 |
| PARP11 (GeneID 57097) | -0.418 | 2.74 | -0.413 | -0.451 |
| LEP (GeneID 3952) | 0.0799 | 2.12 | 0.114 | 0.0761 |
| MARCHF4 (GeneID 57574) | -0.612 | 3.17 | -0.334 | -0.542 |
| WARS2 (GeneID 10352) | 0.126 | 1.47 | 0.253 | 0.0649 |
| MRPL38 (GeneID 64978) | 0.834 | 0.949 | 0.532 | 0.476 |
| SYT1 (GeneID 6857) | -0.566 | 2.34 | -0.69 | -0.425 |
| TWNK (GeneID 56652) | 0.705 | 0.931 | 0.635 | 0.753 |
| MESD (GeneID 23184) | -0.588 | 4.55 | -0.58 | -0.629 |
| CACFD1 (GeneID 11094) | 0.253 | 1.49 | 0.345 | 0.101 |
| GGCT (GeneID 79017) | 0.101 | 2.44 | -0.634 | -0.0835 |
| ZNF287 (GeneID 57336) | -0.266 | 2.93 | 0.0909 | -0.425 |
| S100A9 (GeneID 6280) | -0.717 | 1.97 | -0.717 | -0.441 |
| TUBA1B (GeneID 10376) | 0.0888 | 3.62 | 0.158 | 0.0861 |

Continued (5 carried over from the part before).
| target gene | mean correlation with KSR1 profile | mean distance from KSR1 profile | KSR1 correlation, replicate 1 | KSR1 correlation, replicate 2 |
| --- | --- | --- | --- | --- |
| CACFD1 (GeneID 11094) | 0.253 | 1.49 | 0.345 | 0.101 |
| GGCT (GeneID 79017) | 0.101 | 2.44 | -0.634 | -0.0835 |
| ZNF287 (GeneID 57336) | -0.266 | 2.93 | 0.0909 | -0.425 |
| S100A9 (GeneID 6280) | -0.717 | 1.97 | -0.717 | -0.441 |
| TUBA1B (GeneID 10376) | 0.0888 | 3.62 | 0.158 | 0.0861 |
| UBE3C (GeneID 9690) | -0.265 | 1.35 | -0.406 | -0.246 |
| TSEN34 (GeneID 79042) | 0.00487 | 2.95 | -0.0464 | -0.042 |
| MRM2 (GeneID 29960) | -0.0906 | 2.13 | -0.427 | -0.373 |
| LANCL2 (GeneID 55915) | 0.312 | 1.91 | 0.142 | -0.1 |
| DBP (GeneID 1628) | 0.562 | 1.07 | 0.414 | 0.478 |
| MTMR3 (GeneID 8897) | 0.12 | 1.97 | -0.101 | -0.259 |
| FGL1 (GeneID 2267) | -0.604 | 1.32 | -0.895 | -0.41 |
| PRKX (GeneID 5613) | -0.208 | 2.3 | 0.0372 | -0.222 |
| RBBP6 (GeneID 5930) | -0.144 | 2.91 | -0.347 | -0.0293 |
| EEF1A1 (GeneID 1915) | 0.213 | 1.36 | 0.357 | 0.0708 |
| POLR2A (GeneID 5430) | -0.0384 | 4.34 | 0.569 | -0.179 |
| TMC8 (GeneID 147138) | 0.0345 | 3.01 | 0.0131 | -0.168 |
| ANTXR1 (GeneID 84168) | 0.57 | 1.6 | 0.395 | 0.585 |
| EFNA2 (GeneID 1943) | 0.7 | 1.72 | 0.746 | 0.632 |
| DAZ1 (GeneID 1617) | 0.671 | 1.88 | 0.674 | 0.61 |
| ADGRG2 (GeneID 10149) | 0.696 | 2.85 | 0.706 | 0.712 |
| PARVB (GeneID 29780) | 0.353 | 2.63 | 0.0305 | 0.219 |
| ZNF207 (GeneID 7756) | -0.514 | 3.36 | -0.501 | -0.395 |
| VRK2 (GeneID 7444) | 0.11 | 2.01 | 0.164 | 0.0452 |
| FARP2 (GeneID 9855) | -0.469 | 1.31 | -0.58 | -0.234 |
| LIN7C (GeneID 55327) | -0.457 | 2.12 | -0.211 | -0.667 |
| ZMAT4 (GeneID 79698) | 0.458 | 1.91 | 0.564 | 0.638 |
| PDCD4 (GeneID 27250) | 0.26 | 1.93 | 0.159 | 0.102 |
| ZNF26 (GeneID 7574) | 0.338 | 1.96 | 0.459 | 0.199 |
| MDK (GeneID 4192) | 0.254 | 1.75 | 0.308 | 0.194 |
| SH2D3C (GeneID 10044) | -0.228 | 4.13 | 0.0506 | -0.232 |
| WDR75 (GeneID 84128) | 0.376 | 2.82 | 0.254 | 0.419 |
| OAZ3 (GeneID 51686) | -0.267 | 2.43 | -0.117 | -0.124 |
| EPS8L1 (GeneID 54869) | 0.533 | 2.21 | 0.176 | 0.552 |
| MT3 (GeneID 4504) | -0.338 | 1.65 | -0.682 | -0.401 |
| SIK3 (GeneID 23387) | 0.33 | 1.92 | 0.643 | 0.339 |
